The text below walks through data of PubChem BioAssay AID2685 (National Center for Advancing Translational Sciences (NCATS), 2010).

The list shows a part of the results. Shown are side measurements of this screen, not its main read-out; they come without a call. Compounds called inactive in the main read-out are mostly missing here. The note in brackets gives the kind of curve behind each potency; many fits are weak.

The term AC50 denotes the concentration at which the activity in the assay is half-maximal. Higher therefore signals activity only at high concentration.

The test in a line: qHTS Assay for Lipid Storage Modulators in Drosophila S3 Cells.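 As to cell number change: cells counted by Cell Tracker Red CMTPX staining in the red channel.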 The following applies: BODIPY lipid droplet fluorescence, 18-24 h; for cell number change: measured here: cell count max response, cells fed with added oleic acid. The method, boiled down: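 Laser-scanning cytometry quantifies lipid droplet accumulation (500–530 nm total intensity; droplet/cell object ratio) in oleic acid-fed (400 uM added) Drosophila S3 cells treated with a concentration series. 20 uM Triacsin C defined 100% inhibition.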
On the technique in general: Quantitative high-throughput screening tests each substance at several concentrations.

The mark [1] stands for this setting: measured here: lipid fluorescence (Fed channel) AC50, cells fed with added oleic acid.
Where [2] appears, read: measured here: cell number channel AC50, cells fed with added oleic acid.

`O=C(CNC(=O)c1ccccc1F)NCCN1C(=O)S/C(=C\c2ccccc2Cl)C1=O`: the cell number change is -9.97%.

In the case of `CCOc1nc2cnccc2n(CC(=O)Nc2cccc(C)c2C)c1=O`, the cell number change came to 8.55%. The AC50 under setting [1] was 0.651 µM [rising, partial curve, poor fit].

In the case of `CC(C)Oc1ccc(CC2CCC(=O)N(C)C2=O)cc1` (configuration not stated), the cell number change was 13.7%. The AC50 under setting [2] was 4.11 µM [falling, single point]. Under setting [1], the AC50 was 0.00461 µM [rising, full curve, poor fit].

In the case of `Cc1c(-n2c(SCC(N)=O)nc3ccccc3c2=O)c(=O)n(-c2ccccc2)n1C`, the cell number change was 43.3%. Further, the AC50 under setting [2] was 29.1 µM [rising, single point]. Besides, the AC50 under setting [1] was 29.1 µM [rising, single point].

On to `CSc1ccc(N=Nc2c(C)[nH]n(C)c2=O)cc1`, for which the cell number change was -68.1%. The AC50 under setting [2] is 29.1 µM [falling, single point]. The AC50 under setting [1] was 29.1 µM [falling, single point].

For `COc1ccccc1CNC(=O)C(NC(=O)c1ccccc1)C(C)C` (configuration not stated), the cell number change came to 17.3%. In addition, the AC50 under setting [2] is 0.082 µM [rising, partial curve, poor fit].

As for `COC(=O)c1cc(C(=O)OCC(=O)NC(=O)c2ccccc2)cc([N+](=O)[O-])c1`, the cell number change was -7.23%.

Consider `NS(=O)(=O)c1ccc(NC(=O)COC(=O)c2ccc3c(c2)OCCO3)cc1`, for which the cell number change amounted to 108%. Also, the AC50 under setting [2] was 29.1 µM [rising, single point]. Further, under setting [1], the AC50 was 29.1 µM [rising, single point].

For `COc1cccc(/C=C/C(=O)OCC(=O)Nc2ccc(Cl)c(S(=O)(=O)N(C)C)c2)c1`, the cell number change is -29.1%. For the same compound, the AC50 under setting [2] is 2.06 µM [falling, full curve, poor fit]. Further, under setting [1], the AC50 was 0.58 µM [falling, full curve, poor fit].

Take `COc1ccc(CN2CCN(S(=O)(=O)c3ccccc3)CC2)cc1Br`: the cell number change is 65.9%. For the same compound, the AC50 under setting [2] is 29.1 µM [rising, single point]. Besides, the AC50 under setting [1] is 29.1 µM [rising, single point].

For `COc1ccc(-n2c(O)c(/C=N/NS(=O)(=O)c3ccc(C)c([N+](=O)[O-])c3)c3ccccc3c2=O)cc1OC`, the cell number change amounted to 131%. For the same compound, the AC50 under setting [1] was 29.1 µM [rising, single point].

As for `COC(=O)CSC1=C(C#N)C(c2ccc(F)cc2)CC(=O)N1` (configuration not stated), the cell number change worked out at 14.7%. In addition, the AC50 under setting [1] is 0.103 µM [rising, full curve].

Consider `Cn1cc(CNC(=O)C2CCC(=O)N(Cc3ccccc3F)C2)cn1` (configuration not stated), for which the cell number change was -20.5%. Besides, the AC50 under setting [1] was 4.61 µM [falling, partial curve].

As to `O=C(CNC(=O)c1ccccc1F)NCCCN1CCCC1=O`, the cell number change was -0.951%. The AC50 under setting [1] was 29.1 µM [falling, single point].

Regarding `O=C(COC(=O)CNS(=O)(=O)c1ccc(F)c(F)c1F)NC1CCCC1`, the AC50 by setting is: under setting [2], 6.51 µM [falling, single point]; under setting [1], 0.00517 µM [rising, full curve, poor fit].

Take `N=c1n(CCN2CCCCC2)c2ccccc2n1CC(=O)c1ccc(Cl)c(Cl)c1`: the cell number change is -31.9%. For the same compound, the concentration at half-maximal activity (AC50) under setting [2] was 20.6 µM [falling, single point]. For the same compound, the AC50 under setting [1] was 29.1 µM [falling, single point].

For the compound `COc1ccc2nc(-c3cccc(N)c3)[nH]c2c1`, the cell number change was determined as 1.5%. Besides, the AC50 under setting [1] is 2.91 µM [rising, partial curve].

For the compound `O=C(CSc1nnc(-c2cccs2)n1Cc1ccccc1)N1CCc2ccccc2C1`, the cell number change is -33%. For the same compound, the AC50 under setting [2] is 3.66 µM [falling, full curve]. Further, the AC50 under setting [1] is 5.17 µM [falling, full curve].

For `O=C(O)c1cccc(S(=O)(=O)Nc2ccccc2N2CCOCC2)c1`, the cell number change is -34.4%. Also, the AC50 under setting [2] is 1.3 µM [falling, full curve]. Besides, under setting [1], the AC50 was 0.92 µM [falling, full curve].

Consider `Cc1ccc(/C=C/C(=O)Nc2cc(S(N)(=O)=O)ccc2O)cc1`, for which, under setting [1], the AC50 is 7.31 µM [rising, partial curve].

Take `CC(Oc1ccc(F)cc1)C(=O)/C=C\N(C)C` (configuration not stated): the cell number change was -40.1%. Moreover, the AC50 under setting [2] is 3.66 µM [falling, full curve]. Besides, the AC50 under setting [1] is 7.31 µM [falling, partial curve].

On to `Cc1ccc(C(=O)NCC(=O)NCC(=O)OCc2ccc(F)cc2)cc1`, for which the cell number change was -4.41%. In addition, under setting [1], the AC50 is 1.03 µM [falling, single point].

Consider `COC(=O)c1c(NC(=O)COC(=O)c2ccc(NC(=O)CC#N)cc2)sc2c1CCCCC2`, for which the cell number change amounted to 10.5%. Further, the AC50 under setting [1] is 0.00517 µM [falling, full curve, poor fit].

Consider `Cc1ccc(S(=O)(=O)Nc2c(O)c3ccccc3oc2=O)cc1`, for which the cell number change stood at 19.2%.

On to `CCOC(=O)c1c(C)[nH]c(C(=O)CN(C)CC(=O)Nc2ccccc2C(F)(F)F)c1C`, for which the cell number change came to 25.7%. Also, the AC50 under setting [1] was 6.51 µM [falling, single point].

On to `Cc1ccc(C(=O)NCCNC(=O)c2ccc(C)nc2)cc1`, for which the cell number change was 15.5%. In addition, the AC50 under setting [2] was 0.0291 µM [rising, full curve, poor fit]. For the same compound, the AC50 under setting [1] is 29.1 µM [rising, single point].

As to `COc1ccc(NC(C)c2cc(Cl)ccc2O)cc1` (configuration not stated), the cell number change was -125%. Further, the AC50 under setting [2] was 29.1 µM [falling, single point]. The AC50 under setting [1] is 29.1 µM [falling, single point].

In the case of `CC(C)(C)C(=O)COC(=O)c1c2c(nc3ccccc13)CCC2`, the AC50 under setting [1] is 0.116 µM [falling, single point].

In the case of `CCCn1c(SCC(=O)Nc2cc(S(=O)(=O)N3CCOCC3)ccc2Cl)n[nH]c1=O`, under setting [1], the AC50 was 29.1 µM [rising, single point].

Take `COc1cc(CNCCc2ccccc2F)ccc1OCC(=O)N1CCCCC1`: the cell number change turned out to be 8.72%. For the same compound, the AC50 under setting [1] is 13 µM [falling, partial curve].

Regarding `Cc1ccc(C)c(NS(=O)(=O)c2cc(C(=O)NCc3ccncc3)ccc2C)c1`, the cell number change came out at 15.3%. Besides, the AC50 under setting [1] is 0.58 µM [rising, single point].

Consider `Cc1ccccc1C(=O)NNC(=O)C1CCN(C(=O)Nc2ccccc2)CC1`, for which the cell number change was -99.2%. Moreover, the AC50 under setting [2] was 2.06 µM [falling, partial curve]. The AC50 under setting [1] is 8.2 µM [falling, partial curve].

For the compound `O=C(Cc1ccccc1)Nc1nnc(-c2ccco2)o1`, the cell number change is -5.13%.

On to `COc1cc(OC)cc(C(=O)NCCCn2ccnc2)c1`, for which the cell number change is -4.46%. In addition, the AC50 under setting [1] is 3.26 µM [rising, full curve, poor fit].

Turning to `COc1ccc(S(=O)(=O)N2CCC(C(=O)NCC(c3cccs3)N(C)C)CC2)cc1` (configuration not stated), the cell number change is 1.44%.

Regarding `O=C(CSc1nc(=O)n2ccccc2n1)N1CCC(Cc2ccccc2)CC1`, the cell number change worked out at 6.6%. Also, the AC50 under setting [1] was 0.103 µM [rising, full curve, poor fit].

Regarding `CC1=C(C(=O)Nc2cc(-c3cccc(F)c3)[nH]n2)C2(CCCCC2)OC1=O`, the cell number change is -38%. Under setting [2], the AC50 was 25.9 µM [falling, single point].

Take `Cc1cccc(-c2noc(CCCC(=O)Nc3cccnc3)n2)c1`: the cell number change was -4.31%.

On to `CCN(c1ccccc1)S(=O)(=O)c1ccc(C(=O)Nc2ncccc2C)cc1`, for which the cell number change came to 41.2%. In addition, the AC50 under setting [2] was 0.0259 µM [rising, full curve]. Also, under setting [1], the AC50 is 0.0517 µM [rising, full curve, poor fit].

As for `CC(C)C(OC(=O)CCCC(=O)Nc1nccs1)C(=O)NC1CCCCC1` (configuration not stated), the cell number change is -11.2%. The AC50 under setting [1] is 29.1 µM [falling, single point].

In the case of `O=C(Cc1ccccc1F)Nc1ccccc1N1CCCC1`, the cell number change is 21.1%. Also, under setting [1], the AC50 is 29.1 µM [rising, single point].

`CCC(=O)Nc1cc(C(=O)OCC(=O)c2ccccc2Cl)ccc1C`: the cell number change is -14.7%. For the same compound, the AC50 under setting [1] is 6.51 µM [falling, single point].

On to `Cc1cc(C)cc(C(=O)NCC(=O)NCCc2c[nH]c3ccccc23)c1`, for which the cell number change was found to be 18.4%. Moreover, the AC50 under setting [1] was 35.5 µM [falling, partial curve, poor fit].

Take `CN(c1ccccc1)S(=O)(=O)c1cc(C(=O)OCC(N)=O)ccc1Cl`: the cell number change is -47%. The AC50 under setting [1] is 29.1 µM [falling, single point].

For the compound `COc1cc(-c2csc(NC3CCCCC3)n2)cc(OC)c1OC`, the cell number change turned out to be 9.46%.

Consider `CN(C)c1ccc(/C=C(\NC(=O)c2ccccc2)C(=O)NCCN2CCOCC2)cc1`, for which the cell number change stood at 9.24%. Besides, under setting [1], the AC50 is 0.206 µM [falling, single point].

Consider `CCNC(=S)N1CCc2cc(OC)c(OC)cc2C1COc1ccc(F)cc1` (configuration not stated), for which the cell number change was -44.5%. Also, the half-maximal activity concentration (AC50) under setting [2] is 29.1 µM [falling, single point].

Take `COc1ccccc1NC(=O)Nc1ccc(C)cn1`: the cell number change was determined as 10.5%. Further, the AC50 under setting [1] was 0.58 µM [rising, single point].

`CNC(=S)N1CCc2sccc2C1C` (configuration not stated): the cell number change was -28.7%. Also, the AC50 under setting [1] was 29.1 µM [falling, single point].

For `Cc1cc(C)c(C(=O)OCc2csc(CC(=O)Nc3ccccc3C)n2)c(C)c1`, the cell number change was -15.5%. Further, under setting [1], the AC50 was 29.1 µM [falling, single point].

As to `CCOC(=O)C(C)Sc1nnc(Cc2cc(=O)[nH]c(=O)[nH]2)n1-c1ccc(OCC)cc1` (configuration not stated), the cell number change is -4.56%.

As to `CCOc1ccccc1N1CCN(C(=O)CNC(=O)c2sc3ccccc3c2Cl)CC1`, the AC50 under setting [1] was 0.58 µM [rising, single point].

In the case of `CCCCNC(=O)N(O)C1N(/N=C/c2ccccc2F)C(=S)SC1(C)C` (configuration not stated), the cell number change is -10.2%. Moreover, the AC50 under setting [1] was 0.092 µM [falling, full curve, poor fit].

Regarding `CSCCC(NC(=O)c1ccc(Cl)cc1Cl)C(=O)OC(C)C(=O)NCc1ccco1` (configuration not stated), under setting [2], the AC50 was 0.58 µM [falling, single point].

For the compound `O=C(c1nc[nH]c1C(=O)N1CCN(c2ccccc2)CC1)N1CCN(c2ccccc2)CC1`, the cell number change is -42.9%. Besides, the AC50 under setting [2] was 0.184 µM [falling, full curve].

As for `Cc1ccc(S(=O)(=O)c2nnn3c2nc(N2CCN(c4ccccn4)CC2)c2ccccc23)cc1C`, the cell number change was -9.54%. Also, the AC50 under setting [1] was 2.31 µM [rising, partial curve, poor fit].

Consider `O=C(NCCCn1ccnc1)Nc1ccc(Cl)c(Cl)c1`, for which the cell number change worked out at 7.3%.

Consider `CSc1ccccc1C(=O)NCCSc1ccc(C)cc1`, for which the cell number change was -3.41%. Further, the AC50 under setting [2] is 6.51 µM [falling, single point]. Also, the AC50 under setting [1] is 18.4 µM [falling, single point].
